Measurements as given in publication PMC7819943, “Rice protein-binding microarrays: a tool to detect cis-acting elements near promoter regions in rice”.
This is one part of the list.

What follows are sequences tested against T1, OsSMF1 (Oryza sativa, UniProt Q6ZLB0 1-436) (assay: protein-binding microarray (RPBM); PBS, 2% BSA, 51.3 ng/ul salmon testes DNA, 50 uM zinc acetate, 200 nM TF, 25 C, 1 h; high values mean tight binding). Details: protein: recombinant; tags: N-terminal polyhistidine and DsRed monomer fusion (pET32a); chain copies: 2; label: CyDye5-dUTP incorporated in the synthesized complementary strand; 3' TTTTT single-stranded linker to array surface; dsDNA, one strand shown.
T1 sequence: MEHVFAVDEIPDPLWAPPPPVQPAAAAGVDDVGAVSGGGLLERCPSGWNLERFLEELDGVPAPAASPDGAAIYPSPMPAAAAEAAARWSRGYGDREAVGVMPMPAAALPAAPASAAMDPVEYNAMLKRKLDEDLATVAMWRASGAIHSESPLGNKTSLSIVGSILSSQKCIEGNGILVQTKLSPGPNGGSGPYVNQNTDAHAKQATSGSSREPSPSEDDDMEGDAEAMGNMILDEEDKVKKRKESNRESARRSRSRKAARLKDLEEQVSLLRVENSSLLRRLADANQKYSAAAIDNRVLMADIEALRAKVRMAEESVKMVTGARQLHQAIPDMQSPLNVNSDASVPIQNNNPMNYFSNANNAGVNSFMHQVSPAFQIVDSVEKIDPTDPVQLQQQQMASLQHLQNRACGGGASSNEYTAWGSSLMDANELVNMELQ
Method in brief: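 Using Ni–NTA, transcription factors fused N-terminally to polyhistidine and DsRed were purified after expression in E. coli BL21-CodonPlus. These were incubated at 200 nM with a blocked, double-stranded custom Agilent array for 1 h at 25 °C in a buffer containing 50 µM zinc acetate, and the array was washed. The binding signal is per-feature fluorescence intensity (arbitrary units) on an Axon 4000B scanner.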
In the case of “AGAATGGTGGGGCCACGAGGGCCCCACATGTCATTCTCACCGGAGTCACCTAGTGCAG”, the binding signal is reported as 4640 fluorescence intensity (a.u.).
For “AATCTGCAATGCAGCACACGCTGACACGCATGTCTCTGTCCGGAGTCACCTAGTGCAG”, the binding signal was 4360 fluorescence intensity (a.u.).
“CTTCTTCTTCTGACGTCGCCTCCTTTATTCCTCCGCGTTCCGGAGTCACCTAGTGCAG” was tested, and the binding signal was 4110 fluorescence intensity (a.u.).
In the case of “CGAGCCCATACGTGACAGGCCTTACATGTGTGGGCCGTGCCGGAGTCACCTAGTGCAG”, the binding signal is reported as 3700 fluorescence intensity (a.u.).
“GGTGGCTTACAAGAAACGATGGGATCGATATATTCCTTCGCGGAGTCACCTAGTGCAG” was tested, and the binding signal was 3580 fluorescence intensity (a.u.).
For “GCGATGTGCACATGGATTTTAGTGGTAGGTAATGTACCCGCGGAGTCACCTAGTGCAG”, the binding signal was 3300 fluorescence intensity (a.u.).
In the case of “CTCATATGCTTTCCCTTTCTCAGCTCCAGCTCATTCGCTACGGAGTCACCTAGTGCAG”, the binding signal is reported as 5300 fluorescence intensity (a.u.).
For “CGCTGACGCGACGCGCTCTCCTCCGGCGAGGTCTCTGACTCGGAGTCACCTAGTGCAG”, the binding signal was 4080 fluorescence intensity (a.u.).
For “CCACCACGCTTTCCCCGCGCGATGACTCCGCCGCCGCGCCCGGAGTCACCTAGTGCAG”, the binding signal was 5400 fluorescence intensity (a.u.).
“ATAATCCATATTGTTTATTCATCAGCTTGATCACACATACCGGAGTCACCTAGTGCAG” was tested, and the binding signal was 18800 fluorescence intensity (a.u.).
With “GCGCGGCCAACGTGCGGAACGGCAGTGACGCACGCGGGGACGGAGTCACCTAGTGCAG” the binding signal was 3620 fluorescence intensity (a.u.).
For “CAAATGAACAATCTGATCGAGATGACGACATCTGATCTAGCGGAGTCACCTAGTGCAG”, the binding signal was 4690 fluorescence intensity (a.u.).
With “GTCACAGCCTGACCCCTGATAAGTTAAAGTGCAATAGTCCCGGAGTCACCTAGTGCAG” the binding signal was 3940 fluorescence intensity (a.u.).
“TGACTGGTGAGACCTATACTGACGTGGTGTCCAAAACCAGCGGAGTCACCTAGTGCAG” was tested, and the binding signal was 5160 fluorescence intensity (a.u.).
With “ACATGATTATATGATGCACTATTGTGACACAATGATGAGTCGGAGTCACCTAGTGCAG” the binding signal was 4620 fluorescence intensity (a.u.).
In the case of “TATATTGTAATGGAGAACATAACACGTATTAATTAATTAGCGGAGTCACCTAGTGCAG”, the binding signal is reported as 3720 fluorescence intensity (a.u.).
“ATGGTGTTGATTTGTAGTATTCAATAAATCGTACTCCCTTCGGAGTCACCTAGTGCAG” was tested, and the binding signal was 5490 fluorescence intensity (a.u.).
For “GACGGTGAGGCCATATATCTTTCCGGTGACCACATCAGCTCGGAGTCACCTAGTGCAG”, the binding signal was 4720 fluorescence intensity (a.u.).
In the case of “TCTACCGTCACGTGGACTGCTGCGTGGCGAGTGGAGGCCGCGGAGTCACCTAGTGCAG”, the binding signal is reported as 4220 fluorescence intensity (a.u.).
For “AACAATAGCCTCGGTCGAGGTGAGGTGGAAGAAGCAAAGCCGGAGTCACCTAGTGCAG”, the binding signal was 4430 fluorescence intensity (a.u.).
With “GAGTCAGCTTGTCAACCAGGTCAACAATGCCACGTCGGAACGGAGTCACCTAGTGCAG” the binding signal was 16400 fluorescence intensity (a.u.).
With “GTTGTGTTGTGATGGATGACTTAATGGAAGTACTTCCGCACGGAGTCACCTAGTGCAG” the binding signal was 4080 fluorescence intensity (a.u.).
For “CCCGGCCTCCACGTCCCCATATGCTGCGTCGGAGACTGTTCGGAGTCACCTAGTGCAG”, the binding signal was 11300 fluorescence intensity (a.u.).
In the case of “TTTAATACTCCATACATGTGTCCAATCATTCGATGTGATACGGAGTCACCTAGTGCAG”, the binding signal is reported as 3220 fluorescence intensity (a.u.).
In the case of “AGACGTCCTGTAGCAGATTTTACCTCTTCTATAATGGTTGCGGAGTCACCTAGTGCAG”, the binding signal is reported as 9870 fluorescence intensity (a.u.).
With “AGAGAGAGAGAGAGAGAGATCGTCTTCAATCGCGTGGCACCGGAGTCACCTAGTGCAG” the binding signal was 3960 fluorescence intensity (a.u.).
For “AGTAGCATTCGACGCCGCCGCTCGTCATCCGAAGCCGAGCCGGAGTCACCTAGTGCAG”, the binding signal was 3710 fluorescence intensity (a.u.).
“GCCCGTCCTCTTCTGCAAGATCTGCATGGATGACGTGCCGCGGAGTCACCTAGTGCAG” was tested, and the binding signal was 6180 fluorescence intensity (a.u.).
With “CTGCCGCCTCCCCTCCTCCTGGCGCCACGCAAGCGAGCTCCGGAGTCACCTAGTGCAG” the binding signal was 11500 fluorescence intensity (a.u.).
With “TAAAATTAGGATGACAGAGCATCCTAGGCAATAATTAAGCCGGAGTCACCTAGTGCAG” the binding signal was 3670 fluorescence intensity (a.u.).
“CTTCCAAGCACTCTAGCTTACAGCAGTACACATCATGTACCGGAGTCACCTAGTGCAG” was tested, and the binding signal was 6130 fluorescence intensity (a.u.).
In the case of “ACCCAGCTCCCCTCCTATTTTAGGTGGAGCTGACACAGCCCGGAGTCACCTAGTGCAG”, the binding signal is reported as 5940 fluorescence intensity (a.u.).
For “TCCCTCCACCGCAGGTCCGCAGCCCAATCCAATCAGCAGACGGAGTCACCTAGTGCAG”, the binding signal was 4010 fluorescence intensity (a.u.).
With “ACCGGTCAGTCGGCCACCGCCACCTTTGCGCCATACTGCCCGGAGTCACCTAGTGCAG” the binding signal was 4050 fluorescence intensity (a.u.).
In the case of “GGGAGTATCTTTGTTCTTGATGCTGACATGGAATTATCTTCGGAGTCACCTAGTGCAG”, the binding signal is reported as 4030 fluorescence intensity (a.u.).
In the case of “TAAGATATACGACGTGTTAGGTGTATCAATCATATGCCCTCGGAGTCACCTAGTGCAG”, the binding signal is reported as 3410 fluorescence intensity (a.u.).
“TACTCCTGAATATTACTGAATATTATGGGACAATTCTGTGCGGAGTCACCTAGTGCAG” was tested, and the binding signal was 3280 fluorescence intensity (a.u.).
In the case of “TGAGGAGGCAGGACGCACGTTCGCGGGCATCCTGGTTGGGCGGAGTCACCTAGTGCAG”, the binding signal is reported as 3650 fluorescence intensity (a.u.).
With “CTCCGCCGCCAATTCGCTCGGTCCGGCGGTTCGCTGATCCCGGAGTCACCTAGTGCAG” the binding signal was 33200 fluorescence intensity (a.u.).
For “ACATCATCACGCAGGACGCAGCCATGGCATTCGCGGATCACGGAGTCACCTAGTGCAG”, the binding signal was 3370 fluorescence intensity (a.u.).
“CTGAATCTCACCAGAGCAACTCCTATTGGCAGTGTCGACTCGGAGTCACCTAGTGCAG” was tested, and the binding signal was 9420 fluorescence intensity (a.u.).
“ACTAAGCGCATTGATTCCCATTATATACTTCCTTTCCTAACGGAGTCACCTAGTGCAG” was tested, and the binding signal was 3570 fluorescence intensity (a.u.).
